2 substances from paper PMC10949617 can be followed below.

Amino acid sequences for entries named in this document (tags omitted). A change or cut given only in a name is not applied to a line headed by its entry.
UniProt A0A2U1NGE6: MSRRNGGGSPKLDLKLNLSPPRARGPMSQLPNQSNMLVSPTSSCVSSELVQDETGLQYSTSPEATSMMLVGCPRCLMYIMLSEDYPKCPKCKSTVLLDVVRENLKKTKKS
UniProt A0A2U1N775: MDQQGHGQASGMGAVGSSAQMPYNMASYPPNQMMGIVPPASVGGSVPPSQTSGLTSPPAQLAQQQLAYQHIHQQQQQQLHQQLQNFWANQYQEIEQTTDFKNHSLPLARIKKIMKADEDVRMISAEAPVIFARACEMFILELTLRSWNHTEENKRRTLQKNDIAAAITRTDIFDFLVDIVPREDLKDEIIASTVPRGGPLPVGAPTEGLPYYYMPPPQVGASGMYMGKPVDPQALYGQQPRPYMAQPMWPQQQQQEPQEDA

No constants are given. Whether binding was seen depends on the method and setting. A result given as binding can be weak or reduced; the word gives no strength.

The target in this experiment is GST-TLR3 (recombinant GST-tagged TrichomeLess Regulator 3) (Artemisia annua). The experiment is described as follows: pull-down; GST pull-down; GST-tagged and His-tagged proteins incubated at 4 °C for 3 h in 300 mM NaCl, 20 mM Tris-HCl, 1% Triton X-100, protease inhibitor cocktail; SDS-PAGE, immunoblot with anti-His and anti-GST; both purified. A general note: A western blot detects proteins with antibodies after separation by electrophoresis.

With “His-CycTL (recombinant His-tagged cyclin trichomeless) (from UniProt A0A2U1NGE6)”, the binding result is recorded as “binds”.
Consider “His-NFY1 (recombinant His-tagged NFY1) (from UniProt A0A2U1N775)”, for which the binding entry was “binds”.
